Experimental data reported in the M2OR odorant receptor database.
This is a selection; strong and weak results do not stand in their true shares. Calls are pooled over several reports, among them a noisy single-well screen. The list shows a part of the results. The list shows a part of the results.

Key:
Settings in all cases: stereoisomer not certain
OR5AN1 (Homo sapiens) = target: T1, OR5AN1 (Homo sapiens) (UniProt Q8NGI8)
T1 sequence (whole entry): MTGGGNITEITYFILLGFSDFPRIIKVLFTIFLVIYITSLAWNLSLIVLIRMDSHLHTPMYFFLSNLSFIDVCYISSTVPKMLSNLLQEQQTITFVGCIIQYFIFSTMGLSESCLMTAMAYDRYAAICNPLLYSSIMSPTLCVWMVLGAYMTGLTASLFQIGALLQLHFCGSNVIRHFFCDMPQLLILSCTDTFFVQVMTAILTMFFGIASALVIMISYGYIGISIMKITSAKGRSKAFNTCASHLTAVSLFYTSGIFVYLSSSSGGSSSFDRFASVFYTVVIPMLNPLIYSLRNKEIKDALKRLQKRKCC
How it was run: (§1)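 Values were gathered from published papers (main text and supplementary material), with extra details requested from the original authors when needed, and checked for typos and inconsistencies. Each receptor–molecule pair is called responsive (active) if the original authors judged the measured signal statistically different from baseline, and non-responsive (inactive) otherwise. Assay methods varied by source, often transient mammalian cell-line luciferase assays. Recorded details include cell line, G-protein, co-transfected protein and tags.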

OR5AR1 (Homo sapiens) = target: T2, OR5AR1 (Homo sapiens) (UniProt Q8NGP9)
T2 sequence (whole entry): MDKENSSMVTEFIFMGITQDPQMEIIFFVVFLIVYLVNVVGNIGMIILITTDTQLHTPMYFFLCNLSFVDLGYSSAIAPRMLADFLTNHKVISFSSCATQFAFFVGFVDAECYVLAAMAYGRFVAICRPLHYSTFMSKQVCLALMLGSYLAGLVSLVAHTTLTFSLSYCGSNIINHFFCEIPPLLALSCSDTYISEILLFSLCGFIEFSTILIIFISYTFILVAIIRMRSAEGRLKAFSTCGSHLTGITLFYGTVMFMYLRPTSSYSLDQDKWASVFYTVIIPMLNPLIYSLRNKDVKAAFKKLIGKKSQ
How it was run: as §1

OR5AS1 (Homo sapiens) = target: T3, OR5AS1 (Homo sapiens) (UniProt Q8N127)
T3 sequence (whole entry): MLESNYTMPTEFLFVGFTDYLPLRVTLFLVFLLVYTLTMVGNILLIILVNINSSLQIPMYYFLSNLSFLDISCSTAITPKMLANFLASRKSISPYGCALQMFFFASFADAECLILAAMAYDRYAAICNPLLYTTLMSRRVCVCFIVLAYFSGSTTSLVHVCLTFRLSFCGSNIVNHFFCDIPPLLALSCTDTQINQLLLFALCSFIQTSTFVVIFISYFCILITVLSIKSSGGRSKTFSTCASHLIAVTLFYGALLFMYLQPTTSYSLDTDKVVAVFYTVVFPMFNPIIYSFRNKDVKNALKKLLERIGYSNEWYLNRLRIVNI
How it was run: as §1

OR5AU1 (Homo sapiens) = target: T4, OR5AU1 (Homo sapiens) (UniProt Q8NGC0)
T4 sequence (whole entry): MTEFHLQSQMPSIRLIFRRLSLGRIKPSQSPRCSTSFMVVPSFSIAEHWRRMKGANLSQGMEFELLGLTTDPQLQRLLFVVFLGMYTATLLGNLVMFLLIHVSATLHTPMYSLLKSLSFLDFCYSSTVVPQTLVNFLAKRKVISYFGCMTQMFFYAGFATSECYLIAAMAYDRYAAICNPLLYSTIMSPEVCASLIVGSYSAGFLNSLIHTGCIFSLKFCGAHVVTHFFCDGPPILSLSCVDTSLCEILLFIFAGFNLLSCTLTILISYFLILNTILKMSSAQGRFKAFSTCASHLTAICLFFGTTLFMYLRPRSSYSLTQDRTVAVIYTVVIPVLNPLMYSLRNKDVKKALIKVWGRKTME
How it was run: as §1

OR5B17 (Homo sapiens) = target: T5, OR5B17 (Homo sapiens) (UniProt Q8NGF7)
T5 sequence (whole entry): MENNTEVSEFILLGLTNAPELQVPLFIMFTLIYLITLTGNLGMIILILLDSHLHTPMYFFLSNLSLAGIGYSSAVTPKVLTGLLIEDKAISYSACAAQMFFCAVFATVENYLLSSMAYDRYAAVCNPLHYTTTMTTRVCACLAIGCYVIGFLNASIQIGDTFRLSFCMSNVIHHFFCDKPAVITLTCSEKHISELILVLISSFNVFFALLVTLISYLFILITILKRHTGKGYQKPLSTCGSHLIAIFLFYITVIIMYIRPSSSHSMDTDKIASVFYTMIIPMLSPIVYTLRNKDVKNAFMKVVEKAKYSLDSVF
How it was run: as §1

OR5B2 = test system: T6, OR5B2
T6 sequence (whole entry): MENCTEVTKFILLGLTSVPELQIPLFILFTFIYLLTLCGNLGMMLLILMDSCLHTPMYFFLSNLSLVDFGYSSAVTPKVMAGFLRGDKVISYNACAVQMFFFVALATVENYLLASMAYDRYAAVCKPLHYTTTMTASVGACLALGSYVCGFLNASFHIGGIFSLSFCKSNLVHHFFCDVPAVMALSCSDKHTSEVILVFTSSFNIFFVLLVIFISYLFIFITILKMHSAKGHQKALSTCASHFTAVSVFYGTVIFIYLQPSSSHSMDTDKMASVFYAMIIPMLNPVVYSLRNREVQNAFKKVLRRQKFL
How it was run: as §1

OR5B3 (Homo sapiens) = target: T7, OR5B3 (Homo sapiens) (UniProt Q8NH48)
T7 sequence (whole entry): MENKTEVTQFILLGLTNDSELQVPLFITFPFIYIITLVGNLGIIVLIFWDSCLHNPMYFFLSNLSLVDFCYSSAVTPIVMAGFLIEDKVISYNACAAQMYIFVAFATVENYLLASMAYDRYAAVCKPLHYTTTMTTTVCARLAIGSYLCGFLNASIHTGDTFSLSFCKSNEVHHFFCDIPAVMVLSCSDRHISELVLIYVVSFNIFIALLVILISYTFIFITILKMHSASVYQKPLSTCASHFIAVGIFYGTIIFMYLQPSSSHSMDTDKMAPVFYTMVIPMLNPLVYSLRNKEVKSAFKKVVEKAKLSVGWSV
How it was run: as §1

OR5BC = test system: T8, OR5BC
T8 sequence (whole entry): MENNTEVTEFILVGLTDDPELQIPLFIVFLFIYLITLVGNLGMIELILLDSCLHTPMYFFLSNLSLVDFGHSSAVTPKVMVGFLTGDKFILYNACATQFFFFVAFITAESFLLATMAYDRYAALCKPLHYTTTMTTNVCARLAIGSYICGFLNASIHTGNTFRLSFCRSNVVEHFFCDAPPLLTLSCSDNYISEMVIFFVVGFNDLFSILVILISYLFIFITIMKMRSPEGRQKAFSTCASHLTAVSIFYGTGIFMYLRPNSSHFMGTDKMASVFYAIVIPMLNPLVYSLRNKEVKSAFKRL
How it was run: as §1

OR5BL = test system: T9, OR5BL
T9 sequence (whole entry): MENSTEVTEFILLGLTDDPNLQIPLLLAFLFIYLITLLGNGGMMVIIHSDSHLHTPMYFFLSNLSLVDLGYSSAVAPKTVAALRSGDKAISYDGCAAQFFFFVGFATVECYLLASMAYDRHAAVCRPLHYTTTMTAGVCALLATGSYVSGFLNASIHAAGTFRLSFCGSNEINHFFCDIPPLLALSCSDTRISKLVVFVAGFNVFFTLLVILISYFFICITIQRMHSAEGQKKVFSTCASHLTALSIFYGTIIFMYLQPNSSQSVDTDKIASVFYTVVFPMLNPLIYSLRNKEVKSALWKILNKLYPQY
How it was run: as §1

OR5C1 (Homo sapiens) = target: T10, OR5C1 (Homo sapiens) (UniProt Q8NGR4)
T10 sequence (whole entry): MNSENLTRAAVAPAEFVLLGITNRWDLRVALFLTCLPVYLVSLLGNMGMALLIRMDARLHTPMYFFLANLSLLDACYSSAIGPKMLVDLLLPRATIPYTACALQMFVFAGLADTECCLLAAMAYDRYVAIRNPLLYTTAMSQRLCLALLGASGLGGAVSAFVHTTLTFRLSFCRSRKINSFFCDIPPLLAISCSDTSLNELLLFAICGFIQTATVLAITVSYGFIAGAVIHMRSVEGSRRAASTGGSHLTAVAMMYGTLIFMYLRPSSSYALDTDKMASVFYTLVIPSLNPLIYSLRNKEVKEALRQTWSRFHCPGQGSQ
How it was run: as §1

Measured: odorant receptor agonist call

CCCCOC(C)=O
inactive: all assays above
